Results deposited as PubChem BioAssay AID686943 (Drosophila RNAi Screening Center, 2013).
Screen: 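Fly genes whose loss alters ERK activation after insulin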 (primary screen). Cells: Drosophila S2R+ haemocyte-like cells expressing YFP-tagged ERK (Rolled). Reagents: long dsRNA against Drosophila genes. Treatment: insulin stimulation versus unstimulated cells; dose and duration not given. Measurement: 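Per-plate z-scores of phospho-ERK immunostaining normalised to YFP-tagged ERK, measured with and without insulin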. Direction: replicate 1, z-score of dpERK with insulin: higher = more active ERK per ERK-YFP after insulin.
The deposit covers about 23,000 reagents; shown is a random part of those with a known target gene and a result. 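Extra replicates exist only for a retested subset of genes; insulin dose and duration not given; both raised and lowered dpERK matter.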 Further read-outs or replicates are left out here. The record does not give: the amount of reagent, the time to read-out.

Aldh7A1 (Aldehyde dehydrogenase 7 family member A1) [DRSC11083] → replicate 1, z-score of dpERK with insulin = 1.19
heph (hephaestus) [DRSC14082] → replicate 1, z-score of dpERK with insulin = 0.31
heph (hephaestus) [DRSC14085] → replicate 1, z-score of dpERK with insulin = -1.09
heph (hephaestus) [DRSC15436] → replicate 1, z-score of dpERK with insulin = 0.02
heph (hephaestus) [DRSC16783] → replicate 1, z-score of dpERK with insulin = -1.9
CG3548 [DRSC04387] → replicate 1, z-score of dpERK with insulin = 0.67
CG30391 [DRSC21572] → replicate 1, z-score of dpERK with insulin = 0.14
CG7888 [DRSC10926] → replicate 1, z-score of dpERK with insulin = 0.09
Usp47 (Ubiquitin specific protease 47) [DRSC11313] → replicate 1, z-score of dpERK with insulin = 0.82
Nup358 (Nucleoporin 358kD) [DRSC14410] → replicate 1, z-score of dpERK with insulin = -1.54
CG10934 [DRSC06017] → replicate 1, z-score of dpERK with insulin = 0.53
mtsh (mitoshell) [DRSC03070] → replicate 1, z-score of dpERK with insulin = 1.06
CG13545 [DRSC04187] → replicate 1, z-score of dpERK with insulin = 0.05
HHEX (Hematopoietically expressed homeobox) [DRSC16186] → replicate 1, z-score of dpERK with insulin = -0.77
Elo68beta (Elongase 68beta) [DRSC09860] → replicate 1, z-score of dpERK with insulin = 0.32
Twdlbeta (Tweedlebeta) [DRSC07310] → replicate 1, z-score of dpERK with insulin = -0.44

Reformatted: entries from further up.
{"gene": "CG3548", "DRSC id": "DRSC04387", "replicate 1, z-score of dpERK with insulin": 0.67}
{"gene": "CG30391", "DRSC id": "DRSC21572", "replicate 1, z-score of dpERK with insulin": 0.14}
{"gene": "CG7888", "DRSC id": "DRSC10926", "replicate 1, z-score of dpERK with insulin": 0.09}

Next reagents:
Or85e (Odorant receptor 85e) [DRSC16768] → replicate 1, z-score of dpERK with insulin = 0.73
CG6923 [DRSC16136] → replicate 1, z-score of dpERK with insulin = 0.59
CG31792 [DRSC02604] → replicate 1, z-score of dpERK with insulin = 0.22
phr6-4 ((6-4)-photolyase) [DRSC03589] → replicate 1, z-score of dpERK with insulin = 0.82
CG12362 [DRSC09884] → replicate 1, z-score of dpERK with insulin = -0.03
Uxt (Uxt prefoldin-like subunit) [DRSC01962] → replicate 1, z-score of dpERK with insulin = -0.77
NTPase [DRSC00761] → replicate 1, z-score of dpERK with insulin = -1.12
CG5174 [DRSC06920] → replicate 1, z-score of dpERK with insulin = 0.39
Orct (Organic cation transporter) [DRSC16777] → replicate 1, z-score of dpERK with insulin = 0.3
CG17477 [DRSC15239] → replicate 1, z-score of dpERK with insulin = -0.5
Prx1 (Peroxiredoxin 1) [DRSC10741] → replicate 1, z-score of dpERK with insulin = -0.22
CSN1b (COP9 signalosome subunit 1b) [DRSC11108] → replicate 1, z-score of dpERK with insulin = -0.05
Ir62a (Ionotropic receptor 62a) [DRSC08250] → replicate 1, z-score of dpERK with insulin = -0.17
CG34386 [DRSC06467] → replicate 1, z-score of dpERK with insulin = -4.22
CG34386 [DRSC06468] → replicate 1, z-score of dpERK with insulin = -0.12
CecC (Cecropin C) [DRSC16606] → replicate 1, z-score of dpERK with insulin = 0.47
Ku80 [DRSC02699] → replicate 1, z-score of dpERK with insulin = 0.7
DIP-beta (Dpr-interacting protein beta) [DRSC20461] → replicate 1, z-score of dpERK with insulin = -0.8
DIP-beta (Dpr-interacting protein beta) [DRSC20489] → replicate 1, z-score of dpERK with insulin = 0.32
DIP-beta (Dpr-interacting protein beta) [DRSC20490] → replicate 1, z-score of dpERK with insulin = 0.29
DIP-beta (Dpr-interacting protein beta) [DRSC20505] → replicate 1, z-score of dpERK with insulin = 0.44
CG15356 [DRSC00386] → replicate 1, z-score of dpERK with insulin = -0.42
RpS18 (Ribosomal protein S18) [DRSC07540] → replicate 1, z-score of dpERK with insulin = -2.36
CG6695 [DRSC16098] → replicate 1, z-score of dpERK with insulin = -2.18
